Test results from publication PMC10460728 (Journal of Pharmacokinetics and Pharmacodynamics, 2023).

Assay: Caco-2 passive permeability
Type: in vitro ADME
Settings: human, internal data, calibration reference, read-out: Reference Papp Caco-2 passive permeability of propranolol

- Papp: 14.8 ×10⁻⁶ cm/s
Compound: CC(C)NCC(O)COc1cccc2ccccc12 (stereo not shown) [propranolol]
